# Assay: Class I and Class II ADH levels in human sera
# Format: biochemical
molecule,measurement,setting,value
"Class II ADH: human liver Class II alcohol dehydrogenase (protein, UniProt P08319 1-380, looked up) All-trans-retinol …: MGTKGKVIKCKAAIAWEAGKPLCIEEVEVAPPKAHEVRIQIIATSLCHTDATVIDSKFEGLAFPVIVGHEAAGIVESIGPGVTNVKPGDKVIPLYAPLCRKCKFCLSPLTNLCGKISNLKSPASDQQLMEDKTSRFTCKGKPVYHFFGTSTFSQYTVVSDINLAKIDDDANLERVCLLGCGFSTGYGAAINNAKVTPGSTCAVFGLGGVGLSAVMGCKAAGASRIIGIDINSEKFVKAKALGATDCLNPRDLHKPIQEVIIELTKGGVDFALDCAGGSETMKAALDCTTAGWGSCTFIGVAAGSKGLTIFPEELIIGRTINGTFFGGWKSVDSIPKLVTDYKNKKFNLDALVTHTLPFDKISEAFDLMNQGKSVRTILIF",normal serum ADH activity,17 healthy volunteers,15.3 nM/min
same,concentration in normal human serum,based on kcat of 1500 min^-1,0.51 ± 0.22 nM
same,molar excess of Class II over Class I ADH,sera with elevated ADH,2-3 fold
same,concentration in serum sample of FIG. 7,serum sample used for inhibition profile,~ 0.1 μM

# From US5162203A, “Methods of measuring isozymes and isozyme classes of alcohol dehydrogenase” (President and Fellows of Harvard College, priority 1989, dated 1992)
